Test results as given in patent US9611503B2, “Escherichia coli cell line with thyA knockout and folA knockout” (priority 2011, dated 2017).
At least one compound was matched to its structure with a doubt left.

Legend:
Type in all cases: cell-based, Escherichia coli
[1] = tested on: E. coli thyA folA KO + Tg wt; conditions: drug susceptibility
[2] = tested on: E. coli thyA folA KO + Pf TM4; conditions: drug susceptibility
[3] = tested on: E. coli thyA folA KO + Tg mt; conditions: drug susceptibility
[4] = tested on: E. coli thyA folA KO + Lm wt; conditions: drug susceptibility
[5] = tested on: E. coli thyA folA KO + Pv wt; conditions: drug susceptibility
[6] = tested on: E. coli thyA folA KO + Pv mt; conditions: drug susceptibility
[7] = tested on: E. coli thyA folA KO + Pf K1; conditions: drug susceptibility
[8] = tested on: E. coli thyA folA KO + Pm wt; conditions: drug susceptibility
[9] = tested on: E. coli thyA folA KO + Tb wt

CCc1nc(N)nc(N)c1-c1ccc(Cl)cc1 [Pyrimethamine]
Interpretation [1]: resistant
Interpretation [2]: sensitive
Interpretation [3]: resistant
Interpretation [4]: resistant
Interpretation [5]: sensitive
Interpretation [6]: resistant
Interpretation [7]: resistant
Interpretation [8]: sensitive
Interpretation [9]: resistant
